In PubChem BioAssay AID540276 (National Center for Advancing Translational Sciences (NCATS), 2011):
About 5,400 (1.8%) of roughly 300,000 compounds were called active. Inconclusive means that the source gave no clear call. Such entries were picked first, then a sample of the others. Calls follow the shape of the full dose curve; tested in HEK293 cells. Potencies beside an inconclusive call are fits to weak or partial responses and may not hold up.

assay: qHTS for inhibitors of binding or entry into cells for Marburg Virus; details: Marburg virus pseudotyped entry inhibition, cell reporter; activity change, negative = inhibition: at 37.8 µM (top of the series) unless noted
% is scaled to controls: 0 for no effect and ±100 for the full control effect; potency is read from the fitted curve at half-maximal effect.

Structure (SMILES)	Potency	activity change, negative = inhibition
O=C(N/N=C/c1ccccc1)c1[nH]ncc1Br	inconclusive: 35.5 µM [inhibitor, single point]	
CC1CCN(S(=O)(=O)c2ccc(NC(=O)Cn3nnc(-c4ccccc4F)n3)cc2)CC1	inconclusive: 25.9 µM [inhibitor, single point]	
COc1cc(C2Nc3ccccc3C(=O)N2c2ccccc2)ccc1O (stereo not drawn)	inconclusive: 1.26 µM [inhibitor, single point]	
C=CCNC(=S)N/N=C/c1ccccc1OCCOc1ccccc1	inconclusive: 8.91 µM [inhibitor, partial curve, poor fit]	
COc1ccc(OC(C)C(=O)N2CCc3ccccc3C2)cc1 (stereo not drawn)	inconclusive: 35.5 µM [inhibitor, single point]	
CC(C)C(=O)NC(=S)Nc1sc2c(c1C(N)=O)CCCC2	inconclusive: 17.8 µM [activator, single point]	
O=C(c1ccc2c(c1)N(Cc1ccc(F)cc1)C(=O)c1ccccc1S2(=O)=O)N1CCN(Cc2ccccc2)CC1	inconclusive: 35.5 µM [inhibitor, single point]	
CC(=O)c1ccc(N2C(=O)[C@@H]3C(C(=O)CCN4C(=O)c5ccccc5C4=O)=NN[C@@H]3C2=O)cc1	inconclusive: 1.16 µM [inhibitor, single point]	
COc1ccc(O[C@@H]2[C@H](O)CO[C@@H]2C=CC#Cc2ccccc2)cc1	inactive	
C/C(CC(=O)Nc1ccc(C)c(Cl)c1)=N\NC(=O)c1ccncc1	inconclusive: 20 µM [inhibitor, partial curve, poor fit]	
Brc1ccc(OCc2nc(-c3ccccn3)n[nH]2)cc1	inactive	
CN(C)/N=C/c1cc([N+](=O)[O-])ccc1O	inconclusive: 17.8 µM [inhibitor, single point]	
COc1ccc(-c2nc(SCC(=O)Nc3ccc4c(c3)OCCO4)c(-c3ccc(F)cc3)[nH]2)cc1OC	inconclusive: 15.8 µM [inhibitor, single point]	
c1ccc2c(CCNC3CCCCC3)c[nH]c2c1	inconclusive: 17.8 µM [inhibitor, partial curve, poor fit]	
COc1ccc(C2Nc3cccc4cccc(c34)N2)cc1Br	inactive	
O=C(CSc1nnnn1C1CCCC1)c1ccc2c(c1)OCCO2	inconclusive: 23.1 µM [inhibitor, single point]	
Cc1nn(CC(=O)N2CCN(c3ccccc3)CC2)c(C)c1[N+](=O)[O-]	inactive	
Cn1c2ccccc2c2cnn(CC(=O)N3CCN(c4cccc(C(F)(F)F)c4)CC3)c(=O)c21	inactive	
O=C(NCc1ccco1)C1CC(=O)N(c2ccc(F)cc2)C1 (stereo not drawn)	inconclusive: 12.6 µM [activator, partial curve, poor fit]	
O=C(CSc1nc2ccccc2s1)NCCOc1ccc(Cl)cc1	inconclusive: 1.46 µM [inhibitor, partial curve, poor fit]	
COc1ccc(-c2cc(-c3ccccc3)nc(Cl)n2)cc1OC	inconclusive: 14.1 µM [inhibitor, single point]	
O=C(Nc1ccc(N2CCN(C(=O)c3ccc(Cl)cc3)CC2)cc1)c1ccc2c(c1)OCCO2	inconclusive: 8.2 µM [inhibitor, single point]	
CC(C)(C)OC(=O)[C@H]1[C@H](c2ccc([N+](=O)[O-])cc2)C2(C(=O)c3ccccc3C2=O)C2c3ccccc3C=NN21 (stereo partly drawn)	inconclusive: 0.231 µM [activator, single point]	

Structure (SMILES)	Potency	activity change, negative = inhibition
O=C(NCCOc1ccccc1)C1CCC(=O)N(CCCN2CCOCC2)C1 (stereo not drawn)	inconclusive: 14.1 µM [activator, partial curve, poor fit]	
Clc1cc2c(cc1/C=N/Nc1nc(N3CCOCC3)nc(N3CCOCC3)n1)OCO2	inactive	
Cc1[nH]c2ccccc2c1C1=CC(=O)C=CC1=O	inconclusive: 25.1 µM [inhibitor, single point]	
C/C(=N\NC(=O)c1c(Cl)c(C)nn1C)c1cccc(NC(=O)c2cccc(F)c2)c1	inconclusive: 1.26 µM [inhibitor, single point]	
COc1ccc(C(=O)NCc2cccnc2)cc1S(=O)(=O)N1CCCc2ccccc21	inconclusive: 17.8 µM [inhibitor, single point]	
O=C(COc1coc(CN2CCN(c3ccccc3F)CC2)cc1=O)N1CCc2ccccc21	inconclusive: 31.6 µM [activator, single point]	
Cc1cc(Nc2nc(Cl)c(Cl)cc2Cl)n(-c2ccccc2)n1	inactive	
Cc1csc2nc(O)c(C(=O)NCC3CCCO3)c(=O)n12 (stereo not drawn)	inactive	
c1ccc(OCCSc2nc3ccccc3[nH]2)cc1	inactive	
Cc1ccc(C(=O)N2CC(=O)NC(=O)C2)cc1	inactive	
CON(C)c1nc(OCCNC(=O)OCc2ccc(Cl)cc2C)nc(N(C)C)n1	inconclusive: 29.1 µM [inhibitor, partial curve, poor fit]	
NC(Cc1cccc(-c2ccccc2CP(=O)(O)O)c1)C(=O)O (stereo not drawn)	inconclusive: 0.141 µM [inhibitor, full curve, poor fit]	
CCN(CC)CCCn1c2c(c(SCC(=O)Nc3cccc(C)c3C)nc1=O)CCC2	inconclusive: 3.98 µM [inhibitor, full curve, poor fit]	
CCC(CC)C(=O)Nc1ccc2nc(SCC(=O)N3CCc4ccccc43)sc2c1	inconclusive: 10 µM [inhibitor, partial curve]	
Cc1sc(NC(=O)c2ccco2)nc1-c1ccc2c(c1)CC(C)N2C(=O)C1CC1 (stereo not drawn)	active: 10.3 µM	
CC(C)CO/N=C1\C[C@@H](O)[C@@H](O)[C@@H]2[C@@H]3C(=O)N(C4CCCCC4)C(=O)[C@@H]3CC[C@H]12	inactive	
CC(=O)c1ccc(N2CC(C)(C)C2=O)cc1	inconclusive: 35.5 µM [activator, single point]	
Cc1nn(-c2ccccc2)c2nc(-c3ccncc3)cc(C(=O)NCc3ccco3)c12	inconclusive: 20.6 µM [inhibitor, single point]	
Cc1cccc(NC(=S)N2CCn3cccc3C2c2cccnc2)c1 (stereo not drawn)	inconclusive: 35.5 µM [inhibitor, single point]	
CC(=O)Nc1ccnc(-c2cccnc2)n1	inactive	
COC(=O)c1cccc(NC(=O)NC23CC4CC(CC(C4)C2)C3)c1	inconclusive: 35.5 µM [inhibitor, single point]	
Cc1cc2ccccc2c(=O)n1CC(=O)NCC(=O)N1CCN(c2cccc(Cl)c2)CC1	inactive	
CC(C)(C)c1ccc(OCC(=O)NNC(=S)NC(=O)c2ccccc2[N+](=O)[O-])c(Br)c1	inconclusive: 15.8 µM [inhibitor, single point]	

Structure (SMILES)	Potency	activity change, negative = inhibition
Cc1cc(C)cc(C(=O)N(CCc2ccccc2)C2=CC3CCC(C2)N3C)c1 (stereo not drawn)	inconclusive: 20.6 µM [inhibitor, single point]	
CCN(CC)S(=O)(=O)c1cc(OC)c(Cl)cc1Cl	inactive	
O=C(c1ccc(OCC2CCCO2)cc1)N1CCc2ccccc2C1 (stereo not drawn)	inactive	
CCOP(=O)(OCC)C(Nc1ccc(F)cc1)c1ccccc1 (stereo not drawn)	inconclusive: 7.08 µM [inhibitor, partial curve, poor fit]	
O=S(=O)(c1ccc2c(c1)OCCO2)N1CCN(c2cccc(Cl)c2)CC1	inconclusive: 15.8 µM [inhibitor, partial curve, poor fit]	
CC(C)(C)C(=O)Cn1c(=O)n(-c2ccccc2)c(=O)c2c3c(sc21)CCC3	inconclusive: 3.55 µM [activator, full curve, poor fit]	
O=C(Cc1noc2ccccc12)NNC(=S)Nc1ccccc1		inconclusive: 1.85% [activator] [at 46.1 µM]
COc1ccc(C(=O)N2CCOCC2)cc1S(=O)(=O)N1CCC(C)CC1	inconclusive: 28.2 µM [inhibitor, single point]	
COc1ccc(CCN=C(N)NS(=O)(=O)c2ccc(OC)cc2)cc1	inactive	
COc1c(C)cc(C(=O)C2CCCN(Cc3cnc(C)s3)C2)cc1C (stereo not drawn)	inactive	
Cc1ccc(Cl)cc1NC(=S)N1CCC(c2ccccc2)C1 (stereo not drawn)	inconclusive: 15.8 µM [inhibitor, single point]	
C/C(=N\NC1=NCCN1)c1ccc(Cl)cc1	inconclusive: 3.98 µM [inhibitor, single point]	
COc1cccc(-c2nnc(SC(C(=O)c3c[nH]c4ccccc34)c3ccccc3)n2C)c1 (stereo not drawn)	inconclusive: 29.1 µM [inhibitor, single point]	
COc1ccc(OC)c(-c2ccccc2/C=N/NS(=O)(=O)c2ccc(C)cc2)c1	inconclusive: 6.68 µM [inhibitor, single point]	
COc1ccc(OC)c(C(C)NC(=O)C(C)Cc2ccccc2)c1 (stereo not drawn)	inconclusive: 10 µM [inhibitor, partial curve, poor fit]	
CCOc1ccc(NC(=O)c2ccccn2)cc1	active: 0.316 µM	
Cc1csc(NC(=O)c2cc3c(s2)CCC3)n1	active: 12.6 µM	
C=CCc1ccccc1OCc1nc2ccccc2n1CC	inconclusive: 5.62 µM [inhibitor, single point]	
CN=C1S/C(=C\c2ccc(N3CCOCC3)cc2C)C(=O)N1C	inactive	
CC(=O)N(O)CCCCCNC(=O)CCC(=O)N(O)CCCCCNC(=O)CCC(=O)N(O)CCCCCN	inactive	
COC(=O)N/N=C/c1cc(Cl)c(OCc2ccc(F)cc2)c(OC)c1	inconclusive: 0.184 µM [inhibitor, partial curve, poor fit]	
CCCC1O[C@@H]2C[C@H]3[C@@H]4CCC5=CC(=O)C=C[C@]5(C)C4[C@@H](O)C[C@]3(C)[C@]2(C(=O)CO)O1 (stereo partly drawn)	active: 3.16 µM	
